Data: PMC10650415, “Synthesis of Tetracyclic Spirooxindolepyrrolidine-Engrafted Hydantoin Scaffolds: Crystallographic Analysis, Molecular Docking Studies and Evaluation of Their Antimicrobial, Anti-Inflammatory and Analgesic Activities” (Molecules, 2023)
Converted amounts (≈) assume the structure as drawn.

Test system: Candida albicans ATCC 90028
Assay: MIC, in vitro micro diffusion method
Format: cell-based
Details: ATCC90028, C. albicans ATCC 90028
Excerpt: In this part, the spiropyrrolidines 4a–m were selected to be screening for their antimicrobial activities, using in vitro micro diffusion method, against multiple bacterial strains (Staphylocoocus aureus ATCC 25923, Escherichia coli ATCC 25922, Pseudomonas aeruginosa ATCC 27950, Micrococcus luteus NCIMB 8166), and two pathogenic reference yeasts namely Candida albicans ATCC 90028 and Candida kreusei ATCC 6258.

C[C@@H]1[C@H](O)[C@@H](C)/C=C/C=C/C=C/C=C/C=C/C=C/C=C/[C@H](O[C@@H]2O[C@H](C)[C@@H](O)[C@H](N)[C@@H]2O)C[C@@H]2O[C@](O)(C[C@@H](O)C[C@@H](O)[C@H](O)CC[C@@H](O)C[C@@H](O)CC(=O)O[C@H]1C)C[C@H](O)[C@H]2C(=O)O [Amphotericin B, reference compound]
MIC: 31.2 µg/mL (≈ 33.8 µM)
